# Screen size: about 320,000 compounds; about 2,100 (0.66%) were called active. The inconclusive results got no clear call from the source; some entries with a clear call stand among them for comparison. The call rests on the fitted dose curve; in most records, active means well fitted inhibition curve with a large enough effect in the signal ratio, with a control signal flat (not every such curve was filed as active); inconclusive means small, poorly fitted or top-dose-only effect, or effect the other way, or a change in a side signal; inactive means flat fitted curve, though single readings scatter; the % refers to the signal ratio. Potencies of inconclusive entries are doubtful fits and often do not repeat.
# Assay: qHTS Assay for Lipid Storage Modulators in Drosophila S3 Cells
# Conditions: BODIPY lipid droplet fluorescence, 18-24 h, cells fed with added oleic acid; lipid storage change, negative = inhibition: at 46.1 µM (top of the series) unless noted
# Outline: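 Drosophila S3 cells loaded with oleic acid (400 uM, as added) and compounds at several concentrations; lipid droplets imaged by 488-nm laser-scanning cytometry, 500–530 nm intensity and object ratio to cell channel. Percent activity normalized to 20 uM Triacsin C.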
# On the % scale 0 is the no-effect control and ±100 the full control effect; potency means the concentration at half of the fitted maximal effect.
Structure (SMILES),"lipid storage change, negative = inhibition",Potency
CCOc1ccc(N2C(=O)CN=C2Nc2ccccc2F)cc1,inconclusive: 19%,
O=C(c1c[nH]c(C(=O)C(Cl)(Cl)Cl)c1)c1ccccc1Cl,,active: 25.9 µM
CCC(C)(C)NC(=O)C(c1cccc(OC)c1OC)N(Cc1ccccc1)C(=O)CCC(=O)Nc1cc(C)on1 (configuration not stated),inconclusive: 74.2%,
C/C=C/Cn1c(SCCCc2ccccc2)nc2c1c(=O)[nH]c(=O)n2C,,"inconclusive: 7.31 µM [activator, partial curve]"
COC(=O)CCCC(=O)N1CCCC(CNS(=O)(=O)c2ccc(OC)cc2)C1 (configuration not stated),inconclusive: -17.1%,
CC1(C)CC(=O)C(C2=NC(C)(C)Cc3ccccc32)=C(O)C1,inconclusive: -33.6%,
O=C(c1ccc(Cl)cc1)N(Cc1ccc(Br)cc1)N1C(=O)CCC1=O,inconclusive: 9.6%,
CSc1ccc(CCNC(=O)C2CCN(c3nnc(-n4cccc4)s3)CC2)cc1,inconclusive: -52.1%,
O=C(NS(=O)(=O)c1ccccc1Cl)c1ccc[nH]1,inconclusive: -16%,
C(=N\n1cnnc1)/c1ccc(OCc2cccc3ccccc23)cc1,,"inconclusive: 7.31 µM [rising, single point]"
CN1Cc2cc(C(=O)c3ccccc3O)cnc2NC1=O,inconclusive: 37.3%,
CCOC(=O)COc1c(/C=N\O)cc(Cl)cc1OC,,"inconclusive: 20.6 µM [falling, single point]"
CCN1CCN(CCCNC(=O)c2csc3c2CCCCC3)CC1,inconclusive: 4.68%,
COc1ccc(S(=O)(=O)N2CCN(C)CC2c2ccccc2)cc1OC (configuration not stated),inconclusive: -100%,
O=C(CN1CCN(S(=O)(=O)c2ccccc2)CC1)NC1CC1,inactive: -13%,
COC(=O)c1ccccc1NC(=O)c1cn(-c2ccc(C)c(C)c2)c(=O)c2ccccc12,inconclusive: 33.5%,
CC(C)CC(=O)Nc1cccc(NC(=O)c2ccccc2Cl)c1,,"inconclusive: 0.146 µM [activator, full curve, poor fit]"
CC(C)(C)c1ccc(C(=O)C2CCCN(C(=O)c3ccccn3)C2)cc1 (configuration not stated),inconclusive: -75.8%,
CN(C)C(=O)COc1ccc(C(=O)/C=C/c2cccnc2)cc1,inconclusive: -120%,
Cc1cc(C(=O)COc2ccc([N+](=O)[O-])cc2)c(C)n1C1CC1,,"inconclusive: 29.1 µM [cytotoxic, single point]"
CNC(=S)Nc1ccc(OC(F)(F)F)cc1,inconclusive: 23.4%,
CCCCn1c(CCNC(=O)CCC)nc2ccccc21,inconclusive: 50.3%,
O=C1c2cccc3c([N+](=O)[O-])ccc(c23)C(=O)N1c1ccc(Cl)cn1,,"inconclusive: 29.1 µM [cytotoxic, single point]"
Cc1cc(C)n2nc(SC(C)C(=O)N3CCCC3)nc2n1 (configuration not stated),inconclusive,
CS/C(=C(/C#N)S(=O)(=O)c1ccc(Cl)cc1)N1CCOCC1,inconclusive: 11.3%,
COc1ccccc1C1CC(=O)n2c(nc(-c3ccccc3)c2-c2ccccc2)S1 (configuration not stated),,"inconclusive: 11.6 µM [rising, partial curve, poor fit]"

# Arranged by SMILES length (smallest number first): 4 of the compounds above.
Structure (SMILES),"lipid storage change, negative = inhibition",Potency
O=C(NS(=O)(=O)c1ccccc1Cl)c1ccc[nH]1,inconclusive: -16%,
CC(C)CC(=O)Nc1cccc(NC(=O)c2ccccc2Cl)c1,,"inconclusive: 0.146 µM [activator, full curve, poor fit]"
CN(C)C(=O)COc1ccc(C(=O)/C=C/c2cccnc2)cc1,inconclusive: -120%,
O=C(c1ccc(Cl)cc1)N(Cc1ccc(Br)cc1)N1C(=O)CCC1=O,inconclusive: 9.6%,

# Later entries

Structure (SMILES),"lipid storage change, negative = inhibition",Potency
CN(Cc1c(F)cccc1Cl)C(=O)c1cnc2ccccc2n1,,"inconclusive: 29.1 µM [falling, single point]"
CCOC(=O)N1CCN(C(=O)c2ccc(N(Cc3ccc(Cl)cc3)S(C)(=O)=O)cc2)CC1,inconclusive: -73.4%,
Cc1nn(C)cc1S(=O)(=O)NCc1ccc2c(c1)OCO2,inconclusive: 15%,
O=C(Cn1cc(C(=O)C2CCCCC2)c2ccccc21)NCC1CCCO1 (configuration not stated),inconclusive: 79.5%,
CCCNC(=O)c1ccccc1C(=O)NCCC,,"inconclusive: 0.0291 µM [falling, full curve, poor fit]"
Cc1ccc(OCCC(=O)OCC(=O)NC(=O)c2ccccc2)cc1,inconclusive,
CCOc1ccc(N(CC(=O)NC2CCCCC2)C(=O)CCC(=O)Nc2ccccn2)cc1,inconclusive: -55.1%,
CC(C(=O)N1CCCC1)N1CCN(S(=O)(=O)c2ccc(C(C)(C)C)cc2)CC1 (configuration not stated),inconclusive: -6.78%,
COc1ccc(C2CC(c3cccs3)=NN2C(=O)CSc2nc(=O)n3ccccc3n2)cc1 (configuration not stated),inconclusive: 33.4%,
O=C(NCC1CCCO1)C1CCCN(S(=O)(=O)c2ccc(F)cc2)C1 (configuration not stated),inconclusive: 2.08%,
CCN(Cc1ccc2c(c1)OCCO2)C(=O)CN1C(=O)NC2(CCCCC2)C1=O,inconclusive: 24.6%,
O=C(O)CCCC(=O)Nc1ccc(-n2ccc(C(F)(F)F)n2)cc1,inconclusive: -40.7%,
Cc1ccc(S(=O)(=O)N2CCCCC2)cc1NC(=O)COC(=O)C1(C)CC1(Cl)Cl (configuration not stated),inconclusive: -37%,
CCn1cc(Cl)c(C(=O)Nc2ccccc2C(N)=O)n1,inconclusive: 13%,
CC1CCC(NC(=O)CCS(=O)(=O)c2ccc3c(c2)NC(=O)CO3)CC1 (configuration not stated),inconclusive: -0.674%,
CCC(C)N1CC23C=CC(O2)C(C(=O)OC)C3C1=O (configuration not stated),inconclusive: -6.69%,
CCOC(=O)C1=C(CCc2ccccc2)NC(=O)NC1c1ccc2ccccc2c1 (configuration not stated),,"inconclusive: 11.6 µM [falling, partial curve, poor fit]"
CCOc1cc2c3c(c1)C(C)=CC(C)(C)N3C(=O)C2=O,inconclusive: -11.3%,
CCOCCCNC(=O)c1cc(Cl)c(NC(=O)C2=C(C)OCCS2)cc1OC,inconclusive: 2.79%,
CCOc1ccc(N2C(=O)CC(/C=C3/N(C)c4ccccc4C3(C)C)C2=O)cc1 (configuration not stated),inconclusive: -2.13%,
CC(=O)c1c(Cl)nc2ccc(Br)cc2c1-c1ccccc1,inconclusive: -18.5%,
CC(=O)NCCOc1cccc2cccnc12,inconclusive: -138%,
Fc1ccc(CSc2nc3ccccc3[nH]2)cc1,inconclusive: 214%,
O=C(COC(=O)c1cccc(Cl)c1Cl)NC1CCCC1,inconclusive: 21.3%,
Cc1ccccc1C(=O)N1CCC(C(=O)Nc2ccccc2N2CCCC2)CC1,inconclusive: 38.3%,
CCC(c1nnnn1CCc1ccccc1)N(Cc1ccco1)Cc1cc2c(C)ccc(C)c2[nH]c1=O (configuration not stated),inconclusive: -8.19%,

# Reference: PubChem BioAssay AID2685 (National Center for Advancing Translational Sciences (NCATS), 2010)
